Patent publication EP4413991A1, “PEPTIDE FOR COGNITIVE IMPROVEMENT” (Consejo Superior De Investigaciones Científicas, priority 2023, dated 2024)
For at least one compound, name, drawing or mass did not settle the structure.

Columns and labels:
Assay type in all cases: in vivo, C57BL/6 mice
[1] = system: old mice (~20 months); test: Open field test (OF); conditions: single bilateral intrahippocampal (hilus) injection, 2µl per site; tested one week after surgery; versus vehicle
Experimental: (§1) Different experimental group of old mice (~20 months of age) were randomly injected on the hilus region of both brain hemispheres with vehicle (PBS or destillated water) or with one of four different molecules: Vitamin B12 (50 mg/ml; Vet one, ref: 510218), S-(5'-Adenosyl)-L-methionine chloride (0,25 mg/ml; Sigma, ref: A7007), folic acid (0,25 mg/ml; Sigma, ref: F7876-10G) or synthetic FRa binding peptide, peptide having amino acid sequence SEQ ID NO: 1, (2,5 mg/ml and 5 mg/ml, diluted in PBS; Abyntec). The pH of Vitamin B12, methionine or folic acid were adjusted to ~7 to avoid negative effects due to overly acidic medium. One week after intracerebral injections, mice were assessed with behavioural (open field trial) and memory tests (novel object recognition) to study potential functional effects of different metabolites on central nervous system. […]
(§2) Both open field (OF) and novel object recognition (NOR) tests were performed as described previously (Rodríguez-Matellán A, et al., In Vivo Reprogramming Ameliorates Aging Features in Dentate Gyrus Cells and Improves Memory in Mice. Stem Cell Reports. 2020 Nov 10;15(5):1056-1066. ). Locomotor activity as well as anxiety and depression-like behaviours in old mice were evaluated using OF. […] Each session was recorded and different data like distance, speed, immobile time and time on center square of the box were analysed with Anymaze software. […]

[2] = system: old mice (~20 months); test: Y maze test for spatial memory; conditions: percentage of time in novel arm; single intrahippocampal injection; two weeks after surgery; versus vehicle
Experimental: as §1, with “system. Two weeks after surgeries mice were finally perfused just after finalized Y maze test performing.” for “system.”
To assess spatial memory, an Y maze test based on published protocols with modifications (Kraeuter AK, et al. The Y-Maze for Assessment of Spatial Working and Reference Memory in Mice. Methods Mol Biol. 2019;1916:105-111. ) was performed. […] The number of entries into and the time spent in each arm, were registered from video recordings and analysed by AnyMaze software. […]

[3] = system: old mice (~20 months); test: Novel object recognition test (NOR), memory index; conditions: single intrahippocampal injection, versus vehicle
Experimental: as §1, §2

C[S+](CC[C@H](N)C(=O)O)C[C@H]1O[C@@H](n2cnc3c(N)ncnc32)[C@H](O)[C@@H]1O (stereo partly drawn) [SAM, S-(5'-Adenosyl)-L-methionine chloride]
absence of effects: anxiety-depression like behavior (central square time) [1] | locomotor activity (distance travelled, speed and immobile time) [1] | spatial memory [2] | recognition memory at short term ([3]; 2 hours after training trial) | recognition memory at long-term ([3]; 5 days after training trial)
